Here are results for one sequence from publication doi:10.1101/2025.01.16.633226.

Chains of the proteins cited; added tags and fusions are not shown. Residues count along the entry.
UniProt Q9BRS8, 70-295: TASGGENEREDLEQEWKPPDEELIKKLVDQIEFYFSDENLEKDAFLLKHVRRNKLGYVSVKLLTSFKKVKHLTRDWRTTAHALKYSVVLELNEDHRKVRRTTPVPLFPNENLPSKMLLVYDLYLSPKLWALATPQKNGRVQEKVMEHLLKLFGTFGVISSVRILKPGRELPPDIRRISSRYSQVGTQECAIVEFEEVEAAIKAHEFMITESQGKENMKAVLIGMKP

The exact form of at least one protein or probe is not confirmed. At least one verdict rests on a figure or table, not on a statement of the authors.

This series deals with LARP6 (70-295) (UniProt Q9BRS8). Kind of series: TR-FRET. The note with it: labeled probe; residues 70-295. For orientation: Time-resolved FRET reads energy transfer from a long-lived donor to a nearby acceptor.

Take “CCACAAAGAGUCUACAUGUCUAGGGUCUAGACAUGUUCAGCUUUGUGG [DIG-A1 (COL1A1 5'SL)]”: the binding result is “binds”.
